# Measured values from PubChem BioAssay AID504467 (National Center for Advancing Translational Sciences (NCATS), 2011).
# The whole screen tested about 330,000 compounds, of which about 7,700 (2.3%) were called active. Inconclusive results, whose numbers are uncertain, are shown with a selection of clear calls. Calls come from the whole dose curve; as a rule, active = well fitted inhibition curve with a large enough effect; inconclusive = small, poorly fitted or top-dose-only effect, or effect the other way; inactive = flat fitted curve, though single readings scatter. Potencies of inconclusive entries are doubtful fits and often do not repeat.
# Test: qHTS screen for small molecules that inhibit ELG1-dependent DNA repair in human embryonic kidney (HEK293T) cells expressing luciferase-tagged ELG1; note: nearly all actives have a fitted effect of over 55% in size
# Settings: HEK293T ELG1-luciferase reporter, luminescence, 16 h, DNA damage induced by 5-fluorouridine; activity change, negative = inhibition: at 46.1 µM (top of the series)
# How it was run: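 Reporter activity after DNA damage by 5-fluorouridine is monitored. Compound-treated cells incubate 16 hr at 37 °C, then ONE-Glo is added for 30 min before luminescence reading.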
# % is set by controls: 0 for no effect and ±100 for the full control effect; potency is the fitted concentration of half-maximal effect.
SMILES,"activity change, negative = inhibition",Potency
COC(=O)C1=C(N)Oc2c(c(=O)oc3ccccc23)[C@]12C(=O)N(C)c1ccccc12,inactive: 1.15%,
CN(C(=O)c1cccc(NC(=O)Cc2cccc([N+](=O)[O-])c2)c1)C1CCCCC1,,"inconclusive: 18.3 µM [inhibitor, single point]"
S=C(NCCc1ccccc1)NCCc1cnc[nH]1,,"inconclusive: 35.5 µM [activator, single point]"
C=C1C(O)[C@@H]2O[C@]3(CC[C@H](/C=C/C(C)[C@@H]4CC(C)=CC5(O[C@H](C[C@@](C)(O)C(=O)O)CCC5O)O4)O3)CC[C@H]2O[C@@H]1C(O)CC(C)[C@H]1OC2(CCCCO2)CCC1C (stereo not given in full),,active: 0.0517 µM
COc1ccc([N+](=O)[O-])cc1N=Cc1c(O)n(CCc2ccccc2)c(=O)n(C(C)C)c1=O,,active: 16.4 µM
CCOC(=O)C1(c2ccccc2)CCN(CCC(=O)Nc2ccccc2OC)CC1,,"inconclusive: 9.2 µM [inhibitor, partial curve, poor fit]"
CN1C2c3ccccc3C3C4c5ccccc5C(C31)C(C2[N+](=O)[O-])N4C (stereo not given),inactive: -1.3%,
CCCCCCNC(=O)N[C@@H](Cc1ccc(O)cc1)C(=O)NCCC[C@H]1CN2C(=NC[C@H]2C)N1CC1CCC1,,"inconclusive: 32.6 µM [activator, single point]"
O=C1NC(=O)N(Cc2ccccc2Cl)C(=O)/C1=C/c1cccs1,,"inconclusive: 29.1 µM [activator, single point]"
CCCCCCn1c(O)c(C=Nc2ccccc2N2CCOCC2)c(=O)[nH]c1=S,inactive: -10.4%,
CCCCOc1ccc(CC2C(=O)N(C)C(=O)N(C)C2=O)cc1,inactive: -3.29%,
CCN1CCN(C(=O)COc2cc(=O)n(CC)c3ccccc23)CC1,,"inconclusive: 11.6 µM [activator, partial curve]"
COC(=O)c1cn(CCOc2ccccc2)c2ccccc12,,"inconclusive: 18.4 µM [activator, partial curve]"
NC(=O)c1ccsc1NC(=O)COC(=O)Cc1ccccc1,inactive: 2.31%,
CC(C)c1ccc(N2C(=O)NC(=O)/C(=C/C=C/c3ccco3)C2=O)cc1,,"inconclusive: 29.1 µM [inhibitor, single point]"
O=C(C1CC(c2ccccc2O)=NO1)N1CCC2(CC1)OCCO2 (stereo not given),,"inconclusive: 9.2 µM [activator, partial curve]"
O=C(/C=C/c1ccccc1)C1C(=O)c2ccccc2C1=O,,"inconclusive: 2.31 µM [activator, full curve]"
O=C(c1cccc(Cl)c1)C1CCCN(Cc2ccon2)C1 (stereo not given),,active: 0.58 µM
COc1ccccc1-n1c(O)c(/C=N/NC(=S)Nc2ccccc2)c(=O)[nH]c1=S,,"inconclusive: 18.3 µM [activator, partial curve]"
O=C1NC(=O)C(CCc2ccncc2)(Cc2ccc3c(c2)OCO3)C(=O)N1CCc1ccccc1 (stereo not given),,"inconclusive: 23.1 µM [inhibitor, partial curve]"

SMILES,"activity change, negative = inhibition",Potency
O=C(O)C(O)(c1ccccc1)C1CCCCC1 (stereo not given),,"inconclusive: 0.164 µM [activator, partial curve, poor fit]"
Cc1cccc(C(=O)Nc2ccc(Cl)cc2C(=O)c2ccccc2)c1,,"inconclusive: 29.1 µM [inhibitor, partial curve, poor fit]"
CC(=O)Nc1ccc(OC(=O)N2CCCCC2)cc1,,"inconclusive: 20.6 µM [activator, single point]"
Cc1ccc(NS(=O)(=O)c2ccc(OCC(=O)N3CCN(C)CC3)cc2)cc1,inactive: 3.55%,
CCOC(=O)c1sc(/N=C/c2c(O)n(-c3ccccc3)c(=O)[nH]c2=O)c(C#N)c1C,,"inconclusive: 25.9 µM [activator, single point]"
C/C=C(\C)C(=O)N[C@@H](c1ccccc1)[C@@H](O)C(=O)O[C@H]1C[C@@]2(O)[C@@H](OC(=O)c3ccccc3)C3[C@](C)(C(=O)[C@H](O)C(=C1C)C2(C)C)[C@@H](O)C[C@H]1OC[C@@]31OC(C)=O (stereo not given in full),,"inconclusive: 0.184 µM [inhibitor, single point]"
CC1=CC(=C2C(=O)NC(=S)NC2=O)C=C(C(F)(F)F)N1CCc1ccccc1,inactive: 2.06%,
Fc1ccc(CNCCc2c[nH]c3ccccc23)cc1,,"inconclusive: 2.59 µM [inhibitor, partial curve, poor fit]"
O=c1oc2ccccc2c(O)c1C(c1ccc([N+](=O)[O-])cc1)c1c(O)c2ccccc2oc1=O,inactive: 5.55%,
O=C(C1CC(=O)N(C2CCCC2)C1)N1CCC2(CC1)OCCO2 (stereo not given),,"inconclusive: 5.01 µM [inhibitor, full curve, poor fit]"
CCCOc1ccc(C(=O)NC(=S)N2C[C@H]3C[C@H](C2)c2cccc(=O)n2C3)cc1,,"inconclusive: 32.6 µM [activator, partial curve, poor fit]"
COc1ccc(-c2nc3ccc(C(=O)N4CCC5(CC4)OCCO5)cc3nc2-c2ccc(OC)cc2)cc1,,active: 16.4 µM
COc1ccc(-c2oc(=O)n(C)c2-c2ccc(OC)cc2)cc1,,"inconclusive: 29.1 µM [activator, single point]"
Cc1ccc(/C=C2\C(=O)NC(=O)N(CC3CCCO3)C2=O)s1 (stereo not given),,"inconclusive: 20.6 µM [activator, partial curve, poor fit]"
O=C(c1ccc(N2CCCCCC2)c([N+](=O)[O-])c1)N1CCC2(CC1)OCCO2,,"inconclusive: 32.6 µM [inhibitor, single point]"
CNC(=S)N1CCN(CCN=Cc2c(O)n(-c3ccc(C)cc3)c(=S)[nH]c2=O)CC1,inactive: 1.78%,
Cc1cccc(N2C(=O)NC(=O)/C(=C\c3cc(C)n(-c4sc5c(c4C#N)CCCC5)c3C)C2=O)c1C,,"inconclusive: 14.6 µM [activator, partial curve]"
CCOC(=O)c1c(-n2c(C)cc(C=C3C(=O)NC(=O)NC3=O)c2C)sc2c1CCCC2,inactive: -1.76%,
COc1cccc(CNCCc2c[nH]c3ccccc23)c1OC,inactive: -22.4%,
O=C(CCNC(=O)N1C[C@H]2C[C@@H](C1)c1cccc(=O)n1C2)Nc1cccc(Cl)c1,,"inconclusive: 1.16 µM [activator, single point]"
